Data set [1] has as its system source gene exon mRNA in tumor and normal tissue samples. Kind of data set: Expression profiling (RNAseq) of genes encoding the peptides, tumor versus normal tissues. Details: species or system human. To be noted: RNAseq, Table 9a; for Exon Expression in tumor types vs normal tissue panel: highly over-expressed (++): tumor types in which the peptide's exon is highly over-expressed (++) vs panel of normal tissues; for Exon Expression in tumor types vs normal tissue panel: over-expressed (+): tumor types in which the peptide's exon is over-expressed (+) vs panel of normal tissues; for Exon Expression in tumor types vs normal tissue panel: very highly over-expressed (+++): tumor types in which the peptide's exon is very highly over-expressed (+++) vs panel of normal tissues.

The subject of data set [2] is HLA molecules of primary tumor and normal tissue samples (cancer entities). Put plainly: Identification and label-free LC-MS quantitation of HLA-presented tumor-associated peptides on tissue samples. The conditions noted are these: cancer entities on whose tumor tissue samples the HLA-presented peptide was found (LC-MS); abbreviations in the footnotes of Table 8a. Details: species or system human.

For some of these results: Expression values are those of the mRNA of the gene that encodes the peptide; a gene is named only where it was looked up.

Take “106: peptide found in KISS1R (gene looked up) (LYAFLGSHF; listed as Homo sapiens) [compound 106]”: in data set [1], the “Exon Expression in tumor types vs normal tissue panel: highly over-expressed (++)” value is “RCC” and the “Exon Expression in tumor types vs normal tissue panel: over-expressed (+)” value is “BRCA, NSCLCadeno, UEC”. Also, the “Peptide Presentation on cancer entities” value in data set [2] was “RCC”.

Take “246: peptide found in NPFFR2 (gene looked up) (KIYTTVLFANI; listed as Homo sapiens) [compound 246]”: in data set [1], the “Exon Expression in tumor types vs normal tissue panel: highly over-expressed (++)” value is given as “HCC” and the “Exon Expression in tumor types vs normal tissue panel: over-expressed (+)” value is given as “GBC”. Also, the “Peptide Presentation on cancer entities” value in data set [2] was “HCC”.

As to “221: peptide found in CCR8 (gene looked up) (VFYCLLFVF; listed as Homo sapiens) [compound 221]”, in data set [1], the “Exon Expression in tumor types vs normal tissue panel: highly over-expressed (++)” value was “NHL” and the “Exon Expression in tumor types vs normal tissue panel: over-expressed (+)” value is reported as “BRCA, CCC, HNSCC, MEL, NSCLCadeno, NSCLCother, NSCLCsquam, OSCAR, UBC”. For the same substance, the “Peptide Presentation on cancer entities” value in data set [2] was “CCC, NSCLCsquam”.

On to “59: peptide found in PTPRZ1 (gene looked up) (VFPLVTPLL; listed as Homo sapiens) [compound 59]”, for which the “Exon Expression in tumor types vs normal tissue panel: highly over-expressed (++)” value in data set [1] is listed as “GBM”. For the same substance, the “Peptide Presentation on cancer entities” value in data set [2] is on record as “GBM”.

For “3: peptide found in TRPM8 (gene looked up) (KFLTHDVLTELF; listed as Homo sapiens) [compound 3]”, in data set [1], the “Exon Expression in tumor types vs normal tissue panel: highly over-expressed (++)” value is “GBM, SCLC”; the “Exon Expression in tumor types vs normal tissue panel: over-expressed (+)” value is listed as “MEL”; the “Exon Expression in tumor types vs normal tissue panel: very highly over-expressed (+++)” value is given as “PRCA”. Besides, the “Peptide Presentation on cancer entities” value in data set [2] was “PRCA”.

In the case of “81: peptide found in SLC5A4 (gene looked up) (AYLKLLPMF; listed as Homo sapiens) [compound 81]”, the “Exon Expression in tumor types vs normal tissue panel: highly over-expressed (++)” value in data set [1] is recorded as “MEL”. In data set [2], the “Peptide Presentation on cancer entities” value is “BRCA, HNSCC, MEL”.

On to “28: peptide found in OR51E2 (gene looked up) (FWFDSREISF; listed as Homo sapiens) [compound 28]”, for which the “Exon Expression in tumor types vs normal tissue panel: very highly over-expressed (+++)” value in data set [1] is on record as “PRCA”. Also, the “Peptide Presentation on cancer entities” value in data set [2] was “PRCA”.

As for “326: peptide found in DYRK4 (gene looked up) (VHMKDFFYF; listed as Homo sapiens) [compound 326]”, the “Exon Expression in tumor types vs normal tissue panel: over-expressed (+)” value in data set [1] is given as “CLL, NHL”. The “Peptide Presentation on cancer entities” value in data set [2] is “CLL, MEL, NHL, NSCLCadeno, NSCLCsquam, OC, PACA”.

Turning to “223: peptide found in PTPRZ1 (gene looked up) (KLRALSILF; listed as Homo sapiens) [compound 223]”, the “Exon Expression in tumor types vs normal tissue panel: highly over-expressed (++)” value in data set [1] is reported as “GBM”. Moreover, the “Peptide Presentation on cancer entities” value in data set [2] is reported as “PRCA”.

Take “176: peptide found in FLT3 (gene looked up) (TQAGEYLLF; listed as Homo sapiens) [compound 176]”: in data set [1], the “Exon Expression in tumor types vs normal tissue panel: highly over-expressed (++)” value is recorded as “AML”. The “Peptide Presentation on cancer entities” value in data set [2] is given as “AML”.

“17: peptide found in SLC6A3 (gene looked up) (IYPEAIATL; listed as Homo sapiens) [compound 17]”: in data set [1], the “Exon Expression in tumor types vs normal tissue panel: over-expressed (+)” value was “NSCLCadeno” and the “Exon Expression in tumor types vs normal tissue panel: very highly over-expressed (+++)” value is “RCC”. The “Peptide Presentation on cancer entities” value in data set [2] is “BRCA, NSCLCadeno, NSCLCother, RCC”.

In the case of “216: peptide found in LOXL4 (gene looked up) (RHYHSIEVF; listed as Homo sapiens) [compound 216]”, the “Exon Expression in tumor types vs normal tissue panel: highly over-expressed (++)” value in data set [1] is on record as “MEL”. In data set [2], the “Peptide Presentation on cancer entities” value is “HCC”.

On to “20: peptide found in CYP4Z1 (gene looked up) (ELMAHPFLL; listed as Homo sapiens) [compound 20]”, for which the “Exon Expression in tumor types vs normal tissue panel: very highly over-expressed (+++)” value in data set [1] is listed as “BRCA”. Besides, the “Peptide Presentation on cancer entities” value in data set [2] was “OC, PACA”.

Take “40: peptide found in ESR1 (gene looked up) (NYPEGAAYEF; listed as Homo sapiens) [compound 40]”: the “Exon Expression in tumor types vs normal tissue panel: highly over-expressed (++)” value in data set [1] was “BRCA, OC, UEC”. Besides, in data set [2], the “Peptide Presentation on cancer entities” value is “NSCLCadeno, OC”.

With “76: peptide found in NPFFR2 (gene looked up) (IYIYPFAHW; listed as Homo sapiens) [compound 76]”, in data set [1], the “Exon Expression in tumor types vs normal tissue panel: highly over-expressed (++)” value is on record as “HCC” and the “Exon Expression in tumor types vs normal tissue panel: over-expressed (+)” value is “GBC”. Also, the “Peptide Presentation on cancer entities” value in data set [2] is “HCC, NHL”.

Turning to “14: peptide found in CHRNA9 (gene looked up) (YYIATMALI; listed as Homo sapiens) [compound 14]”, in data set [1], the “Exon Expression in tumor types vs normal tissue panel: highly over-expressed (++)” value was “GBM, HNSCC, SCLC”; the “Exon Expression in tumor types vs normal tissue panel: over-expressed (+)” value is recorded as “MEL, NSCLCadeno, NSCLCsquam, OC, OSCAR, UBC, UEC”; the “Exon Expression in tumor types vs normal tissue panel: very highly over-expressed (+++)” value was “NSCLCother”. Besides, the “Peptide Presentation on cancer entities” value in data set [2] is recorded as “PRCA”.

For “56: peptide found in FLT3 (gene looked up) (FYKLIQNGF; listed as Homo sapiens) [compound 56]”, the “Exon Expression in tumor types vs normal tissue panel: highly over-expressed (++)” value in data set [1] is “AML”. Besides, the “Peptide Presentation on cancer entities” value in data set [2] is on record as “AML”.

Take “273: peptide found in GPR143 (gene looked up) (VTMYLPLLL; listed as Homo sapiens) [compound 273]”: the “Exon Expression in tumor types vs normal tissue panel: highly over-expressed (++)” value in data set [1] is “MEL”. Also, in data set [2], the “Peptide Presentation on cancer entities” value is given as “GC, NSCLCadeno, NSCLCsquam, OC, RCC”.

As for “153: peptide found in LOXL4 (gene looked up) (AWSPPATLF; listed as Homo sapiens) [compound 153]”, in data set [1], the “Exon Expression in tumor types vs normal tissue panel: highly over-expressed (++)” value is reported as “MEL” and the “Exon Expression in tumor types vs normal tissue panel: over-expressed (+)” value was “CCC”. Moreover, in data set [2], the “Peptide Presentation on cancer entities” value is recorded as “MEL”.

On to “137: peptide found in QRFPR (gene looked up) (ALFAVCWAPF; listed as Homo sapiens) [compound 137]”, for which, in data set [1], the “Exon Expression in tumor types vs normal tissue panel: highly over-expressed (++)” value is on record as “RCC” and the “Exon Expression in tumor types vs normal tissue panel: over-expressed (+)” value was “NSCLCsquam, OSCAR”. Further, the “Peptide Presentation on cancer entities” value in data set [2] is listed as “NSCLCsquam”.

In the case of “343: peptide found in CLEC4C (gene looked up) (EYQQYHPSL; listed as Homo sapiens) [compound 343]”, the “Exon Expression in tumor types vs normal tissue panel: over-expressed (+)” value in data set [1] was “CLL, NHL”. In addition, the “Peptide Presentation on cancer entities” value in data set [2] is “NHL”.

In the case of “157: peptide found in F5 (gene looked up) (SIYPHGVTF; listed as Homo sapiens) [compound 157]”, in data set [1], the “Exon Expression in tumor types vs normal tissue panel: highly over-expressed (++)” value was “HCC” and the “Exon Expression in tumor types vs normal tissue panel: over-expressed (+)” value is “CCC”. For the same substance, in data set [2], the “Peptide Presentation on cancer entities” value is “PRCA”.

For “138: peptide found in QRFPR (gene looked up) (MMVTVVALF; listed as Homo sapiens) [compound 138]”, in data set [1], the “Exon Expression in tumor types vs normal tissue panel: highly over-expressed (++)” value is on record as “RCC” and the “Exon Expression in tumor types vs normal tissue panel: over-expressed (+)” value is on record as “NSCLCsquam, OSCAR”. In addition, in data set [2], the “Peptide Presentation on cancer entities” value was “NSCLCsquam, RCC”.

Take “201: peptide found in PTPRZ1 (gene looked up) (VFPSVDVSF; listed as Homo sapiens) [compound 201]”: the “Exon Expression in tumor types vs normal tissue panel: highly over-expressed (++)” value in data set [1] was “GBM”. Further, in data set [2], the “Peptide Presentation on cancer entities” value was “CRC, GBM”.

With “79: peptide found in SUCNR1 (gene looked up) (FYIVTRPLAF; listed as Homo sapiens) [compound 79]”, in data set [1], the “Exon Expression in tumor types vs normal tissue panel: highly over-expressed (++)” value was “CCC” and the “Exon Expression in tumor types vs normal tissue panel: over-expressed (+)” value was “AML”. The “Peptide Presentation on cancer entities” value in data set [2] is “NHL, NSCLCadeno”.

For the substance “225: peptide found in CYP1A1 (gene looked up) (ISMSATEFLL; listed as Homo sapiens) [compound 225]”, in data set [1], the “Exon Expression in tumor types vs normal tissue panel: highly over-expressed (++)” value was “NSCLCother”. The “Peptide Presentation on cancer entities” value in data set [2] is recorded as “OSCAR”.

In the case of “155: peptide found in F5 (gene looked up) (PYSIYPHGVTF; listed as Homo sapiens) [compound 155]”, in data set [1], the “Exon Expression in tumor types vs normal tissue panel: highly over-expressed (++)” value is reported as “HCC” and the “Exon Expression in tumor types vs normal tissue panel: over-expressed (+)” value is “CCC”. Besides, the “Peptide Presentation on cancer entities” value in data set [2] is “HCC”.

Turning to “312: peptide found in KCNK18 (gene looked up) (YLCMLYALF; listed as Homo sapiens) [compound 312]”, the “Exon Expression in tumor types vs normal tissue panel: over-expressed (+)” value in data set [1] was “GBM”. Also, the “Peptide Presentation on cancer entities” value in data set [2] is recorded as “CCC, GBC, GC, NHL”.

“252: peptide found in SUCNR1 (gene looked up) (RYLIIKYPF; listed as Homo sapiens) [compound 252]”: in data set [1], the “Exon Expression in tumor types vs normal tissue panel: highly over-expressed (++)” value was “CCC” and the “Exon Expression in tumor types vs normal tissue panel: over-expressed (+)” value is listed as “AML”. Also, the “Peptide Presentation on cancer entities” value in data set [2] was “GBC”.

For “341: peptide found in ADCY8 (gene looked up) (RYENVSILF; listed as Homo sapiens) [compound 341]”, in data set [1], the “Exon Expression in tumor types vs normal tissue panel: over-expressed (+)” value is “GBM”. Also, the “Peptide Presentation on cancer entities” value in data set [2] is listed as “GBM, OC”.

Source of the values: patent US12060400B2, “Peptides for use in immunotherapy against cancers” (Immatics Biotechnologies GmbH, priority 2018, dated 2024).
